# Not every detail of the peptide structures is certain; ends, links or a residue may be inferred. Residues, ends and D or L forms follow the SMILES beside them. *: point of attachment. X1 = CC1(C)C(/C=C/C=C/C=C/C=C2/N(CCCCS(=O)(=O)O)c3ccc(C(=O)*)cc3C2(C)C)=[N+](CCCCS(=O)(=O)[O-])c2ccccc21
# What was measured:
# HT29-tumor = experiment: In-vivo fluorescence imaging in tumor-carrying nude mice, HT29 tumor; settings: HT29 tumor in right rear flank, one hour after administration
# From the text: The imaging properties of the compounds according to the invention were studied in vivo after injection into tumor-carrying nude mice. […] The fluorescence of the substances was excited by irradiation of animals with near-infrared light of wavelength 640 nm (indodicarbocyanines) or 740 nm (indotricarbocyanines), which was produced with an Nd:YAG laser. The fluorescence radiation was detected at a wavelength of >700 nm or >800 nm by an intensified CCD-camera, and the fluorescence images were stored digitally.
# HT29 cells = experiment: Cell imaging by fluorescence microscopy, HT29 cells; assay type: cell-based, human; settings: 10 μM, 30 minutes of incubation, Cy7-filter set
# Procedure: (§1) The binding and imaging of the compounds according to the invention were studied in vitro in human tumor cells, and the receptors for vaso-active intestinal peptide and/or somatostatin and/or neurotensin were expressed. To this end, 5×10^5 tumor cells were incubated in 1.5 ml of medium, which contained the test substance. Different concentrations of the substances (10 nM-10 μM) were used, and the incubation period varied (1 minute-24 hours). After the incubation, the cells were set, and microscopic preparations were produced. The evaluation was carried out on a Zeiss Axiovert 135-fluorescence microscope, which was equipped with a Cy7-(Exciter HQ 710/70 nm, emitter 810/90 nm, beam splitter 750 nm LP), Cy5-(exciter 575-625 nm, emitter 660-710 nm BP, beam splitter 645 nm) and Cy3-filter set (exciter 546/12 nm, emitter 590 nm LP, beam splitter 580 nm). From all preparations, white light and fluorescence images were recorded with a CCD-camera (Visitron RTE/CCD-576) and digitally stored.
# RIN38-SSTR2-tumor = assay type: in vivo, nude mice; settings: RIN38-SSTR2 tumor in right rear flank, 0.1 μmol/kg intravenously, one hour after administration
# RIN38-VIP1-cells = experiment: Cell imaging by fluorescence microscopy, RIN38-VIP1 cells; assay type: cell-based, rat; settings: 10 μM
# Procedure: as §1
compound,measurement,setting,value
"CC[C@H](C)[C@H](NC(=O)[C@H](CO)NC(=O)[C@H](CC(N)=O)NC(=O)[C@H](CC(C)C)NC(=O)[C@H](Cc1ccc(O)cc1)NC(=O)[C@H](CCCCN)NC(=O)[C@H](CCCCN)NC(=O)[C@@H](NC(=O)[C@H](C)NC(=O)[C@H](CCSC)NC(=O)[C@H](CCC(N)=O)NC(=O)[C@H](CCCCN)NC(=O)[C@H](CCCNC(=N)N)NC(=O)c1ccc2c(c1)C(C)(C)\C(=C/C=C/C=C/C=C/C1=[N+](CCCCS(=O)(=O)[O-])c3ccccc3C1(C)C)N2CCCCS(=O)(=O)O)C(C)C)C(=O)N[C@@H](CC(C)C)C(=O)N[C@@H](CC(N)=O)C(N)=O [conjugate 20, Indotricarbocyanine-VIP (14-28)-conjugate] (X1-RKQMAVKKYLNSILN-NH2)",increase in fluorescence intensity in the tumor relative to the contralateral flank,HT29-tumor; 0.1 μmol/kg intravenously,~2 fold
same,"fluorescence image of the cells (pattern, correlation with white light image)",HT29 cells,"Fluorescence dispersed homogeneously over the cells, good correlation with the white light image"
"C[C@@H](O)[C@H](NC(=O)[C@@H]1CSSC[C@H](NC(=O)[C@@H](Cc2ccccc2)NC(=O)c2ccc3c(c2)C(C)(C)\C(=C/C=C/C=C/C=C/C2=[N+](CCCCS(=O)(=O)[O-])c4ccccc4C2(C)C)N3CCCCS(=O)(=O)O)C(=O)N[C@@H](Cc2ccccc2)C(=O)N[C@H](Cc2c[nH]c3ccccc23)C(=O)N[C@@H](CCCCN)C(=O)N[C@@H]([C@@H](C)O)C(=O)N1)C(=O)O [conjugate 30, Indotricarbocyanine-pentetreotide]",increase in fluorescence intensity in the tumor relative to the contralateral flank,RIN38-SSTR2-tumor,~3 fold
same,"fluorescence image of the cells (pattern, correlation with white light image)",RIN38-VIP1-cells; Cy7-filter set,"Fluorescence areas with a vesicular pattern in the membrane area of the cell, good correlation with the white light image"
"CC[C@H](C)[C@H](NC(=O)[C@H](CO)NC(=O)[C@H](CC(N)=O)NC(=O)[C@H](CC(C)C)NC(=O)[C@H](Cc1ccc(O)cc1)NC(=O)[C@H](CCCCN)NC(=O)[C@H](CCCCN)NC(=O)[C@@H](NC(=O)[C@H](C)NC(=O)[C@H](CCSC)NC(=O)[C@H](CCC(N)=O)NC(=O)[C@H](CCCCN)NC(=O)[C@H](CCCNC(=N)N)NC(=O)[C@H](CC(C)C)NC(=O)[C@H](CCCNC(=N)N)NC(=O)[C@@H](NC(=O)[C@H](Cc1ccc(O)cc1)NC(=O)[C@H](CC(N)=O)NC(=O)[C@H](CC(=O)O)NC(=O)[C@@H](NC(=O)[C@H](Cc1ccccc1)NC(=O)[C@@H](NC(=O)[C@H](C)NC(=O)[C@H](CC(=O)O)NC(=O)[C@H](CO)NC(=O)[C@H](Cc1c[nH]cn1)NC(=O)c1ccc2c(c1)C(C)(C)\C(=C/C=C/C=C/C1=[N+](CCCCS(=O)(=O)[O-])c3ccccc3C1(C)C)N2CCCCS(=O)(=O)O)C(C)C)[C@@H](C)O)[C@@H](C)O)C(C)C)C(=O)N[C@@H](CC(C)C)C(=O)N[C@@H](CC(N)=O)C(N)=O [conjugate 15, Indodicarbocyanine-VIP (1-28)-conjugate]",increase in fluorescence intensity in the tumor relative to the contralateral flank,HT29-tumor; 0.2 μmol/kg intravenously,~1.4 fold
same,fluorescence image of the cells (pattern),RIN38-VIP1-cells; Cy5-filter set,intracellular fluorescence areas with a vesicular pattern in the membrane area of the cell
